± gives the standard deviation. Only a part is listed here, and it is no random draw. The uncertainty is large for many entries.
The sequences below were run on EfPiwi piRISC loaded with piRNA #1 (26 nt) (assay: pre-steady-state target cleavage rate (min^-1); guide: piRNA #1 5'p-UGAGGUAGUAGGUUGUAUAGUAUCCA; MIWI and MILI are mouse PIWI proteins and EfPiwi is from a freshwater sponge; tags in brackets are library labels; higher = faster piRNA-guided slicing of the target). Settings: auxiliary factor: 500 nM Ephydatia muelleri Gtsf1.
How it was run: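 The pre-steady-state cleavage rate came from a burst-and-steady-state fit to pooled data from three Cleave-'n-Seq trials, in which uncleaved targets were sequenced and normalised to depth and to weakly complementary targets. Each reaction held 0.1 nM transcribed, DNA-blocked target RNA library and 1 nM active affinity-purified piRISC carrying one synthetic guide, with or without 500 nM GTSF1 partner protein, in HEPES–potassium acetate buffer at 33 °C for 0–8 or 0–960 min. k3 was capped at 0.0001 min^-1.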

Row | Sequence | pre-steady-state target cleavage rate
1 | GGAGACCUAUGUAUACAACCUACCUACCUCA | 0.000582 ± 0.011
2 | GGAGACCAUACUAUACAGCCUACUACCUCA | 0.16 ± 0.053
3 | GGAGACCUAUCUUUACAACCUAGUACCUCA | 0.00302 ± 0.0036
4 | GGAGAUGAUACUAUACAACCUACUACCUCA | 0.193 ± 0.068
5 | GGAGAGGAAACUAUACAACCUAGUACCUCA | 0.00323 ± 0.0013
6 | GGAGUCGAUACUAUACAACCUACUAGCUCA | 0.00304 ± 0.0019
7 | GGAGACCUAUGUAUACACCCUACUACCUCA | 0.00271 ± 0.005
8 | GGAGACCUUACUAAACAACGUACUACCUCA | 0.00154 ± 0.006
9 | GGAGACCUAUGAUAUGUACGUACUACCACA | 0.000117 ± 0.02
10 | GGAGAGGAUACUAUACAACCUACUACGAGA | 0.00374 ± 0.0018
11 | GGAGACCAUGCUAUACAACCUACUACCUCA | 0.00746 ± 0.0043
12 | GGAGUGGAUACUAUACUUCCUACUACCUCA | 0.0195 ± 0.01
13 | GGAGAGGAUACUAUAGAACCUACUACCACA | 0.00261 ± 0.0014
14 | GGAGACCUAACUAUAGAAGCUACUACCUCA | 0.000937 ± 0.0079
15 | GGAGACCAUACUAUGCAACCUACUACCUCA | 0.0164 ± 0.0068
16 | GGAGACGAUACUAUACAACCUACUACCGCA | 0.00926 ± 0.0033

Reformatted in markdown: entries from further up

| Row | Sequence | pre-steady-state target cleavage rate |
| --- | --- | --- |
| 13 | GGAGAGGAUACUAUAGAACCUACUACCACA | 0.00261 ± 0.0014 |
| 14 | GGAGACCUAACUAUAGAAGCUACUACCUCA | 0.000937 ± 0.0079 |

Reference: the supplement of paper PMC10338343
